Assay results reported in PubChem BioAssay AID248 (DTP/NCI, 2004).
The list does not hold the whole screen: it is rich in T/C values a quarter to a half above the control, in often repeated tests (any T/C) and in doses without a T/C. Other doses and runs of a compound stand elsewhere. T/C gives the treated animals as a percentage of the vehicle group. Some doses have a count of surviving animals in place of a T/C: the source holds a T/C of zero for them, seemingly a mark for toxic or unscored doses. Some survivor counts are full or nearly so, which does not show that the dose was tolerated: the source hardly ever lists a survival T/C far under the control, and the zero likely stands for such cases as well. Counts of survivors are from the toxicity check (mostly the fifth day) where no day follows; animals may have died later. Schedule codes are those of the source, taken here to give the interval after Q, in days (D) or hours (H), and the number of doses after X. Some schedules carry Z or #; the key to these is not given. For survival time, this PubChem deposit counts one and a half times the control or more as active, and values a quarter to a half above the control carry no call in these data; other NCI protocols may use other cut-offs. Some entries hold several experiments; the values are given in rising order. Some T/C values are followed by the survivors on the day toxicity was checked, most often the fifth; without a count, all were alive then.

System: L1210 leukemia ip in BDF1 mice, survival T/C
Experiment: NCI In Vivo Anticancer Drug Screen. Data for tumor model L1210 Leukemia (intraperitoneal) in B6D2F1 (BDF1) mice
Conditions: T/C endpoint: mean survival time, higher T/C = longer survival
[1] = dose: 100.0 mg/kg/injection, schedule: Q01DX009 (ip), vehicle: saline
[2] = dose: 100.0 mg/kg/injection, schedule: Q01DX001 (ip), vehicle: saline with Tween-80
[3] = dose: 200.0 mg/kg/injection, schedule: Q01DX001 (ip), vehicle: saline with Tween-80
[4] = dose: 400.0 mg/kg/injection, schedule: Q04DX002 (ip), vehicle: saline with Tween-80
[5] = dose: 100.0 mg/kg/injection, schedule: Q04DX002 (ip), vehicle: saline with Tween-80
[6] = dose: 200.0 mg/kg/injection, schedule: Q04DX002 (ip), vehicle: saline with Tween-80

O=C(Nc1ccc(NC(=O)Nc2ccc(C3=NCCN3)cc2)cc1)Nc1ccc(C2=NCCN2)cc1
survivor count (dose: 375.0 mg/kg/injection, schedule: Q01DX Z (ip), vehicle: carboxymethylcellulose (CMC)): 3 of 6

[Cl][Nd]([Cl])[Cl]
survivor count [1]: 6 of 6 | survivor count (dose: 400.0 mg/kg/injection, schedule: Q04DX003 (ip), vehicle: saline): 3 of 6

C/C=C/C=C\COC(=O)C1CC1
survivor count (dose: 400.0 mg/kg/injection, schedule: Q04DX002 (ip), vehicle: saline): 1 of 3

CCC(C)(C)NC1=C(Cl)C(=O)c2ccccc2C1=O
survivor count (dose: 25.0 mg/kg/injection, schedule: Q01DX001 (ip), vehicle: saline with Tween-80): 0 of 6 | survivor count [2]: 0 of 6 | survivor count [3]: 0 of 6 | survivor count (dose: 400.0 mg/kg/injection, schedule: Q01DX001 (ip), vehicle: saline with Tween-80): 0 of 6

CC(Br)c1ccc(S(=O)(=O)F)cc1 (configuration not stated)
survivor count [4]: 3 of 3

CC/C(C)=N/NS(C)(=O)=O
survivor count (dose: 300.0 mg/kg/injection, schedule: Q01DX001 (ip), vehicle: other): 0 of 6

Cc1cc(CCl)c(C)c(Br)c1C
survivor count (dose: 75.0 mg/kg/injection, schedule: Q01DX009 (ip), vehicle: Klucel (hydroxypropylcellulose) (HPC)): 1 of 6 | survivor count (dose: 150.0 mg/kg/injection, schedule: Q01DX009 (ip), vehicle: Klucel (hydroxypropylcellulose) (HPC)): 0 of 6 | survivor count (dose: 300.0 mg/kg/injection, schedule: Q01DX009 (ip), vehicle: Klucel (hydroxypropylcellulose) (HPC)): 0 of 6

O=C(Oc1ccccc1)C(Cl)(Cl)Cl
survivor count (dose: 50.0 mg/kg/injection, schedule: Q01DX009 (ip), vehicle: acetone): 6 of 6 | survivor count (dose: 100.0 mg/kg/injection, schedule: Q01DX009 (ip), vehicle: acetone): 6 of 6 | survivor count (dose: 200.0 mg/kg/injection, schedule: Q01DX009 (ip), vehicle: acetone): 3 of 6 | survivor count (dose: 400.0 mg/kg/injection, schedule: Q04DX003 (ip), vehicle: acetone): 4 of 6

CCN(CC)c1ccc(-c2cc(NS(=O)(=O)c3ccccc3)ccc2NS(=O)(=O)c2ccccc2)cc1
survivor count (dose: 50.0 mg/kg/injection, schedule: Q01DX001 (ip), vehicle: Klucel (hydroxypropylcellulose) (HPC)): 6 of 6 | survivor count (dose: 200.0 mg/kg/injection, schedule: Q01DX001 (ip), vehicle: Klucel (hydroxypropylcellulose) (HPC)): 6 of 6

CCCCCCCCCCNC(C1=C(O)c2ccccc2C(=O)C1=O)c1ccccc1 (configuration not stated)
survivor count (dose: 50.0 mg/kg/injection, schedule: Q01DX001 (ip), vehicle: saline with Tween-80): 3 of 3 | survivor count [2]: 3 of 3 | survivor count [3]: 3 of 3

Cc1ccc(CSC(=N)N)cc1
survivor count (dose: 200.0 mg/kg/injection, schedule: Q01DX001 (ip), vehicle: carboxymethylcellulose (CMC)): 0 of 4 | survivor count (dose: 400.0 mg/kg/injection, schedule: Q01DX001 (ip), vehicle: carboxymethylcellulose (CMC)): 0 of 4

CC(CC(=O)O)NC(=O)OCc1ccccc1 (configuration not stated)
T/C [5]: 95, 101, 105 % of control | survivor count [5]: 3 of 3 | T/C [6]: 92, 103, 104 % of control | survivor count [6]: 3 of 3 | T/C [4]: 95, 97, 98, 105 % of control

NC(Cc1cc([N+](=O)[O-])ccc1CN(CCCl)CCCl)C(=O)O (configuration not stated)
T/C (dose: 2.16 mg/kg/injection, schedule: Q04DX003 (ip), vehicle: saline): 136 % of control | T/C (dose: 3.6 mg/kg/injection, schedule: Q01DX001 (ip), vehicle: saline): 130 % of control | T/C (dose: 3.6 mg/kg/injection, schedule: Q04DX003 (ip), vehicle: saline): 137 % of control | T/C (dose: 6.0 mg/kg/injection, schedule: Q01DX001 (ip), vehicle: saline): 135 % of control | survivor count (dose: 27.8 mg/kg/injection, schedule: Q01DX001 (ip), vehicle: saline): 5 of 8

CCN(CC)Cc1cc(Cl)cc(Cc2cc(Cl)cc(CN(CC)CC)c2O)c1O
survivor count (dose: 100.0 mg/kg/injection, schedule: Q04DX003 (ip), vehicle: acetone): 4 of 6

Cc1ccc(S(=O)(=O)N/N=C2/C3CC4C(C3)C24)cc1
survivor count [1]: 6 of 6 | survivor count (dose: 375.0 mg/kg/injection, schedule: Q01DX009 (ip), vehicle: saline): 6 of 6

Cc1ccc(S(=O)(=O)OC[C@H]2CC=CC[C@H]2COS(=O)(=O)c2ccc(C)cc2)cc1
survivor count (dose: 400.0 mg/kg/injection, schedule: Q01DX009 (ip), vehicle: DMSO): 6 of 6 | survivor count (dose: 400.0 mg/kg/injection, schedule: Q04DX003 (ip), vehicle: saline with Tween-80): 6 of 6

CN(CCO)N=Nc1ccccc1C(N)=O
T/C (dose: 78.0 mg/kg/injection, schedule: Q01DX009 (ip), vehicle: saline with Tween-80): 127 % of control | T/C (dose: 118.0 mg/kg/injection, schedule: Q01DX009 (ip), vehicle: saline with Tween-80): 131 % of control | T/C (dose: 177.0 mg/kg/injection, schedule: Q01DX009 (ip), vehicle: saline with Tween-80): 129 % of control [5 of 6 alive] | T/C (dose: 200.0 mg/kg/injection, schedule: Q01DX009 (ip), vehicle: saline with Tween-80): 136 % of control | T/C (dose: 266.0 mg/kg/injection, schedule: Q01DX009 (ip), vehicle: saline with Tween-80): 149 % of control

CC[N+](C)(C)CCC#N
survivor count (dose: 75.0 mg/kg/injection, schedule: Q01DX001 (ip), vehicle: saline): 2 of 6 | survivor count (dose: 150.0 mg/kg/injection, schedule: Q01DX001 (ip), vehicle: saline): 0 of 6 | survivor count (dose: 300.0 mg/kg/injection, schedule: Q01DX001 (ip), vehicle: saline): 0 of 6
